PMC8659110 (Molecules, 2021)

What was measured:
[1] = general procedure: Fmoc solid-phase peptide synthesis; Fmoc-Asp(OtBu)-Wang resin; HBTU/NMM; details: whole synthesis; for isolated yield: scale of the general procedure 100 μmol
[2] = general procedure: Fmoc solid-phase peptide synthesis; Fmoc-Arg(Pbf)-Wang resin; Fmoc-Asp(OtBu)-Wang resin; HBTU/NMM; details: for isolated mass / isolated yield: whole synthesis; for isolated yield: scale of the general procedure 100 μmol

Substance	isolated mass [1] [mg]	isolated mass [2] [mg]	isolated yield [2] [%]	also measured
K(Cy5)RPKPD	18			isolated yield ([1]; overall): 15%
^natGa-NODAGA-K(Cy5)DKPPR				step yield ([2]; late stage modification step): 83.17%
NODAGA-K(Cy5)DKPPR		42	27	
H-KDKPPR-OH		32.5	44	
K(Cy5)DKPPR		20		isolated yield ([2]; overall): 16.6%
NODAGA-K(Cy5)RPKPD	44			isolated yield [1]: 28.2%
